# Test results published in PubChem BioAssay (EPA / NIEHS).
# Sequences of proteins named here, by UniProt entry; tags and fusion partners are left off. A change or cut given only in a name is not applied to a line headed by its entry.
# UniProt P29466: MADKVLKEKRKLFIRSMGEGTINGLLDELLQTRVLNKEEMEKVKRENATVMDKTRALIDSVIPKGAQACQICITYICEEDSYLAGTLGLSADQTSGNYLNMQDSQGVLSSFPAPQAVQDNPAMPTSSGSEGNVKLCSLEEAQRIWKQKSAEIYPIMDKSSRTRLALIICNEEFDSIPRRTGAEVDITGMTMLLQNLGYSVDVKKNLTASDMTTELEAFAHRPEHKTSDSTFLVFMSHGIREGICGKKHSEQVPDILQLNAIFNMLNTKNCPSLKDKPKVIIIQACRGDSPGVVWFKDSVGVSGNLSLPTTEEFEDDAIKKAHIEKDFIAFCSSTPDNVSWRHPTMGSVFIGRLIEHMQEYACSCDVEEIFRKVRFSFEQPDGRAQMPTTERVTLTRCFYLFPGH
# UniProt P00567: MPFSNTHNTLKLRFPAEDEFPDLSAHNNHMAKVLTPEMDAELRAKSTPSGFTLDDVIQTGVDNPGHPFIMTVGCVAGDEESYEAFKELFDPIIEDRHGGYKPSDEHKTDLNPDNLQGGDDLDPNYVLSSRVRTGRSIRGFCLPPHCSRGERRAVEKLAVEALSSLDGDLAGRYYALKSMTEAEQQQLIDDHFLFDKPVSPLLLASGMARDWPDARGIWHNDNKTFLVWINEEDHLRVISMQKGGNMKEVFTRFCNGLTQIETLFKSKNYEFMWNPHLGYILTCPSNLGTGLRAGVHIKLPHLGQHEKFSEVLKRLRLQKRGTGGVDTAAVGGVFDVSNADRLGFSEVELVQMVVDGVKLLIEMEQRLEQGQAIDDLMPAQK
# UniProt P08246: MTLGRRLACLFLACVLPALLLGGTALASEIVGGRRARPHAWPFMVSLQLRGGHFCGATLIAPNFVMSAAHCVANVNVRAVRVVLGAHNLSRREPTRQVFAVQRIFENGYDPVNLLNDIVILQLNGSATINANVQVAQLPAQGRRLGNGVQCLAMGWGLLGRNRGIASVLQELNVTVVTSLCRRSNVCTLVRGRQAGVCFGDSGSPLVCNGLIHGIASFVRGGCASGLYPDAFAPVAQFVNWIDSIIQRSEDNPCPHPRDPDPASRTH
# UniProt P29323: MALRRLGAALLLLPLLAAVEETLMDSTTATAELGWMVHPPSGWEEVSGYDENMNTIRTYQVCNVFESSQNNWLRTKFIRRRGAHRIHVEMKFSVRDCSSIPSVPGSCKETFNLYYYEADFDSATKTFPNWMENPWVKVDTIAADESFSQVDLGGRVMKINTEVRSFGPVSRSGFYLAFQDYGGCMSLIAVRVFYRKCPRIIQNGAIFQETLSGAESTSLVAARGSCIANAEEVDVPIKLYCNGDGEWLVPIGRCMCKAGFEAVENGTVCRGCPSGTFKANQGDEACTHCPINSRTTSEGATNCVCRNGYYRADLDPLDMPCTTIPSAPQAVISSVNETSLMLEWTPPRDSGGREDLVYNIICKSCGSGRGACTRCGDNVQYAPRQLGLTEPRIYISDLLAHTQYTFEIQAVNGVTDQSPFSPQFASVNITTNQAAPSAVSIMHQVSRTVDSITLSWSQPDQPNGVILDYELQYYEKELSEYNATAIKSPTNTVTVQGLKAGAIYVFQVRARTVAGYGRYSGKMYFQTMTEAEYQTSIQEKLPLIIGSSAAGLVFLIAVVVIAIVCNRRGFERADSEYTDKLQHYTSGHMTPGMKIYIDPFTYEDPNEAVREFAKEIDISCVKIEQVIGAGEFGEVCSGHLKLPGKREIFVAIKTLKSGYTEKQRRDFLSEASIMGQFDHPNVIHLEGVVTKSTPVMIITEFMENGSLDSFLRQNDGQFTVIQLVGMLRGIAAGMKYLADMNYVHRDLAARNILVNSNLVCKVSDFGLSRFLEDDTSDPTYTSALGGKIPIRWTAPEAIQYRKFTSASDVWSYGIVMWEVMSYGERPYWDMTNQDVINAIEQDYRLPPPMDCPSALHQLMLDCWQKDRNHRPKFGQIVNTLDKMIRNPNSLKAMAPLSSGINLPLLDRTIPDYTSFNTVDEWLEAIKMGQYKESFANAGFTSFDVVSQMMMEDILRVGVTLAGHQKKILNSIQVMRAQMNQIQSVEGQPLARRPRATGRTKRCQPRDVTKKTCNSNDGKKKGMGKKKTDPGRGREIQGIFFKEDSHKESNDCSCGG
# UniProt P30542, whole entry, looked up: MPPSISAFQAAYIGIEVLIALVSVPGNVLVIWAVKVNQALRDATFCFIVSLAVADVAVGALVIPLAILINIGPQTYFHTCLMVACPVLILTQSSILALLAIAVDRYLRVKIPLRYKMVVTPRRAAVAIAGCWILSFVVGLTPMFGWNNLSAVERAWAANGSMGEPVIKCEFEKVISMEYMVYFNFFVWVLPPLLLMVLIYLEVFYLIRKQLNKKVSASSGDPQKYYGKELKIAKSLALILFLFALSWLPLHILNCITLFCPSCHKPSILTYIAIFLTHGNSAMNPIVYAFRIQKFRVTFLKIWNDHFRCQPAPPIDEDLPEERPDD
# UniProt P08253: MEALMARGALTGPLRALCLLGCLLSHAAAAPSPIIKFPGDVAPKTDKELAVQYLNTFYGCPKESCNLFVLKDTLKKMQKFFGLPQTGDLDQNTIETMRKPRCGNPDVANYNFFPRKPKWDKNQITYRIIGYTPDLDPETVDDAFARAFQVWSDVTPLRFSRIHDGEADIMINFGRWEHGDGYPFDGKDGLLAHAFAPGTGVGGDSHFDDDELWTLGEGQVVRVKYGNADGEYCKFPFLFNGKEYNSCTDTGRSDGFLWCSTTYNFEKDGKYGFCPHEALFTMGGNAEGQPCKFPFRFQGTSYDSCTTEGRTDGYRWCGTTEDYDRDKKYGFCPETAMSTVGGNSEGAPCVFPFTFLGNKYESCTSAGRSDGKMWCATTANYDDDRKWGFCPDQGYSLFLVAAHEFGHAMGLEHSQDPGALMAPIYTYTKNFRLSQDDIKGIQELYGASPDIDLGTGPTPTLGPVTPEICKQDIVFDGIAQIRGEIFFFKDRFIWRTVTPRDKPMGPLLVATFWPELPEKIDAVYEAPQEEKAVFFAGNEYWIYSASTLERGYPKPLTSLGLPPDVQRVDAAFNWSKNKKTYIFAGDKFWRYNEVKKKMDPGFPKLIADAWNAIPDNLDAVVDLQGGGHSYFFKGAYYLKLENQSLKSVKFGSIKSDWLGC
# UniProt P07727: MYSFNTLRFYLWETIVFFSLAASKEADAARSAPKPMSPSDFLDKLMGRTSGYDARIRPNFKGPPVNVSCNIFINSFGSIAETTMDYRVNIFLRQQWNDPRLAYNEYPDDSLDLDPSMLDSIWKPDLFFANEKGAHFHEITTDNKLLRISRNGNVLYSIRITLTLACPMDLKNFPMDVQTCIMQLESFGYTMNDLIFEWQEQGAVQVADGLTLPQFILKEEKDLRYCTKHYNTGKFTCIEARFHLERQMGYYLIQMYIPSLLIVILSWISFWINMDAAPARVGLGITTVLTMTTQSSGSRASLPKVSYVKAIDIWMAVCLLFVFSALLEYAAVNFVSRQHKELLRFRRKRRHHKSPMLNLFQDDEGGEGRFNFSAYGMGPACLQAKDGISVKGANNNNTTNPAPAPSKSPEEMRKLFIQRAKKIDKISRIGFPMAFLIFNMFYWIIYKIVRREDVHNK
# UniProt Q95136, whole entry, looked up: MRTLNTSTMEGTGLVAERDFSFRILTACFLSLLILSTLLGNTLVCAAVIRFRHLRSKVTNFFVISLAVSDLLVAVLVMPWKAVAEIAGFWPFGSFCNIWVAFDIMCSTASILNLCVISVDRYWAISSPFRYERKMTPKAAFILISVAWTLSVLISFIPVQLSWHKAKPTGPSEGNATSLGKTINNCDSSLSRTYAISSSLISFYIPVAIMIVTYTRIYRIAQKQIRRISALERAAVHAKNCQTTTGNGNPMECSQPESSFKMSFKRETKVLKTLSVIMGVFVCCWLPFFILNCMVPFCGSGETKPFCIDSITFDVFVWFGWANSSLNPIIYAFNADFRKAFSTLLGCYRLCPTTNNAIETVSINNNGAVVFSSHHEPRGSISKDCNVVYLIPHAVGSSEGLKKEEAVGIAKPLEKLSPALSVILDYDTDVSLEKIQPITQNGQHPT
# UniProt Q15678: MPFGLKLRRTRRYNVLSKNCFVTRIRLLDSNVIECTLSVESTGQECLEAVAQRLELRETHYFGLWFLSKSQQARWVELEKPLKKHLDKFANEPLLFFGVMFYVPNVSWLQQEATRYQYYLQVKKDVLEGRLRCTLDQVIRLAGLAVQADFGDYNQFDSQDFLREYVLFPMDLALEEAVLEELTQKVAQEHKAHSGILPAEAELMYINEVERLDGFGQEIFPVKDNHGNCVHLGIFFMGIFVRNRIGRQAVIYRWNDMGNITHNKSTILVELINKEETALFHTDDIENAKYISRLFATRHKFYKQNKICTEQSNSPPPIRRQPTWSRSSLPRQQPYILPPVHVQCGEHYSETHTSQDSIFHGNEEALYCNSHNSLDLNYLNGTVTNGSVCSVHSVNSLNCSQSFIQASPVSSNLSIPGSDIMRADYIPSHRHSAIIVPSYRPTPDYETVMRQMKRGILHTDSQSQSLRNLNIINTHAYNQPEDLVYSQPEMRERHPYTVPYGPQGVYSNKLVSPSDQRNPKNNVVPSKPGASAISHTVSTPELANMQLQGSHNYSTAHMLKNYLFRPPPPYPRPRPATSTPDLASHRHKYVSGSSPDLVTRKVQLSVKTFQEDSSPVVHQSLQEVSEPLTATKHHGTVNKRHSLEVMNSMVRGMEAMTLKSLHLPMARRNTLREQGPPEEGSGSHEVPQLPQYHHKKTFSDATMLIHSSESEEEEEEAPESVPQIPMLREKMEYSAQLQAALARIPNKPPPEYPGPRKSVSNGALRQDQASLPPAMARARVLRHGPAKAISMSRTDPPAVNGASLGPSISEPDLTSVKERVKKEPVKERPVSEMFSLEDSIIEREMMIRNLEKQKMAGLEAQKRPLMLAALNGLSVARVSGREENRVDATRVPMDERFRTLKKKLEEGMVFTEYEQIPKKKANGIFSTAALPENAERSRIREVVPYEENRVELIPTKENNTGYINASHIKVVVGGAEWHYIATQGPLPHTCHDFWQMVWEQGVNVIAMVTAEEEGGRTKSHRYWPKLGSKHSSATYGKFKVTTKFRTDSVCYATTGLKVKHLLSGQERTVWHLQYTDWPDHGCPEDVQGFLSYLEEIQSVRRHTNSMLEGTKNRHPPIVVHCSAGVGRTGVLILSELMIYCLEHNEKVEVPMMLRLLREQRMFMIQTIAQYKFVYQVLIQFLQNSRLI
# UniProt P14416, whole entry, looked up: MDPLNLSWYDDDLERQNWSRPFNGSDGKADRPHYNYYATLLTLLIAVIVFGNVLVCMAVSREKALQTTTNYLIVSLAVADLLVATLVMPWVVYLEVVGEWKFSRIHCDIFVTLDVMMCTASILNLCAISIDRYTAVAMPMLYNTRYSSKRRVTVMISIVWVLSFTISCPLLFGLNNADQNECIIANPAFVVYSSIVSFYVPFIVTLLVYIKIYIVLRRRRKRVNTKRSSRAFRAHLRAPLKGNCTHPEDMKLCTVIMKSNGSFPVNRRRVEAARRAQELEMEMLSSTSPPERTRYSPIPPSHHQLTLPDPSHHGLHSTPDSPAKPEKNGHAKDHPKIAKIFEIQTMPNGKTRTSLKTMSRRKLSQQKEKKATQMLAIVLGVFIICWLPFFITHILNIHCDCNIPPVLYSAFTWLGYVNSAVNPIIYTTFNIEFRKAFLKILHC
# UniProt Q01827, whole entry, looked up: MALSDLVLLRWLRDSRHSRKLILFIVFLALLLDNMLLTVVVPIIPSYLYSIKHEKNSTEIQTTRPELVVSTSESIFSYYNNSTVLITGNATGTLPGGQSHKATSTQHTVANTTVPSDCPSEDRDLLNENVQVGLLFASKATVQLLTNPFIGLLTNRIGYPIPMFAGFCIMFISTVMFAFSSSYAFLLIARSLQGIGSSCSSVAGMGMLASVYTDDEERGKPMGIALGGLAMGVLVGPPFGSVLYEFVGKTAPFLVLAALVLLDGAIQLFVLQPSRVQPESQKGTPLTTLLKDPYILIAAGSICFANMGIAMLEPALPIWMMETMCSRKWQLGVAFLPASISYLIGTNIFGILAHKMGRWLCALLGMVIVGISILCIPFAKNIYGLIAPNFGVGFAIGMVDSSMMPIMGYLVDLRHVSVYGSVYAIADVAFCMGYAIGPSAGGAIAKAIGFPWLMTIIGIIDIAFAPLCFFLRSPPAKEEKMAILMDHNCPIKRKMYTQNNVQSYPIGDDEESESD
# The inconclusive results got no clear call from the source; some entries with a clear call stand among them for comparison. For part of these data: Potencies beside an inconclusive call are fits to weak or partial responses and may not hold up. The source made the active and inactive calls. How the source made its calls, unless noted: active means hit-call score of the fitted dose curve at least 0.9, where 1 is the maximum; inconclusive means response in the unintended direction; inactive means score below 0.9.
# Experiments:
# [1] = read-out: xenobiotic metabolism (CYP2C9), CYP2C9 (gene 1559); test: CLD_CYP2C9_48hr: CellzDirect (CLD) Gene Expression Assay for xenobiotic metabolism (CYP1A2) at 48 hours (AID 2283701; active means hit-call score of the fitted dose curve at least 0.9, where 1 is the maximum; inactive means score below 0.9)
# Outline: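 mRNA level measured by quantitative nuclease protection (S1 digestion, chemiluminescent detection) in lysates of human primary hepatocytes exposed 48 h with daily re-dosing. Induction fitted positively versus 0.2% DMSO; morphology-based cytotoxicity flagged yes/no.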
# [2] = test system: Thyroperoxidase (TPO), gene 445522; test: CCTE_Simmons_GUA_TPO: CCTE's Guaiacol Assay for Thyroperoxidase (TPO) Inhibition, Simmons Lab (AID 2283750)
# Outline: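 Porcine thyroid microsomes (25 ug) in 200mM potassium phosphate, preincubated 30 s at 37C with compound (8 concentrations, 5 nM–87.5 uM) and 35mM guaiacol; 1mM H2O2 starts reaction. Absorbance change at 450nm over first 80 s; loss of signal versus DMSO, three replicates.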
# [3] = molecular target: Caspase-1 (Homo sapiens) (UniProt P29466); test: NVS_ENZ_hCASP1: NovaScreen (NVS) Enzymatic Assay for human Caspase 1 (CASP1) (AID 2283132)
# Outline: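 Compounds were first tested in duplicate at 25 uM, with follow-up concentration series up to 50 uM. The bacterially expressed enzyme was read by fluorescence at 1 h post-dosing. Signal loss versus DMSO baseline indicates reduced enzyme activity.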
# [4] = molecular target: rabbit Imidazoline 2 Central (I2C), CKB (gene 100009085) (UniProt P00567); test: NVS_ENZ_rabI2C: NovaScreen (NVS) Enzymatic Assay for rabbit Imidazoline 2 Central (I2C) (AID 2283228)
# Outline: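 Rabbit brain membranes, cell-free; readout by filter-based scintillation counting 1.5 hours after dosing, loss of signal vs DMSO. Initial duplicate test at 25 uM, then concentration-response with 50 uM top concentration.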
# [5] = molecular target: human Elastase, ELANE (gene 1991) (UniProt P08246); test: NVS_ENZ_hElastase: NovaScreen (NVS) Enzymatic Assay for human Elastase (AID 2283153)
# Outline: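 Concentration-response to 50 uM max, run singly for chemicals passing a threshold (e.g., 30% inhibition) in a duplicate 25 uM single-point screen. Neutrophil-derived human elastase, absorbance read-out of enzyme activity at 1.5 h; DMSO baseline.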
# [6] = molecular target: human Ephrin type-B Receptor 2 (EphB2), EPHB2 (gene 2048) (UniProt P29323); test: NVS_ENZ_hEphB2: NovaScreen (NVS) Enzymatic Assay for human Ephrin type-B Receptor 2 (EphB2) (AID 2283156)
# Outline: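 Compounds were first tested in duplicate at 25 uM, with hits rerun singly in concentration series up to 50 uM. Enzyme activity on fluorescent substrate was read at 1 h by mobility-shift separation, scored as signal loss relative to DMSO.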
# [7] = test system: guinea pig Dopamine Transporter (DAT), gene 100714898; test: NVS_TR_gDAT: NovaScreen (NVS) Transporter Assay for guinea pig Dopamine Transporter (DAT) (AID 2283369);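 further: active compounds lower bound radioligand signal relative to DMSO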
# Outline: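 Radioligand displacement on membranes from guinea pig striatum, 2 h exposure, bound label counted by filtration and scintillation. Tested at 25 uM in duplicate, then actives in concentration series to 50 uM; DMSO as negative control.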
# [8] = molecular target: human Adenosine A1 Receptor (AdoRA1), ADORA1 (gene 134) (UniProt P30542); test: NVS_GPCR_hAdoRA1: NovaScreen (NVS) G Protein-Coupled Receptor Assay for human Adenosine A1 Receptor (AdoRA1) (AID 2283254)
# Outline: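 Membranes from human cortical tissue were incubated with radioligand and test chemical for 1 hour, then filtered and counted. Activity was taken as signal loss relative to DMSO, screened at 25 uM in duplicate before concentration-response follow-up.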
# [9] = molecular target: human Matrix Metalloproteinase-2 (MMP2), MMP2 (gene 4313) (UniProt P08253); test: NVS_ENZ_hMMP2: NovaScreen (NVS) Enzymatic Assay for human Matrix Metalloproteinase-2 (MMP2) (AID 2283184)
# Outline: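 Compounds first screened in duplicate at a single 25 uM, with actives followed up in concentration series. Recombinant human MMP2 cleaves a fluorogenic substrate; fluorescence taken at 1 h, inhibition fitted relative to DMSO.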
# [10] = molecular target: rat Glycine Receptor, Strychnine-sensitive (GlyRStrySens), Glra1 (gene 25674) (UniProt P07727); test: NVS_LGIC_rGlyRStrySens: NovaScreen (NVS) Ligand-Gated Ion Channel Assay for rat Glycine Receptor, Strychnine-sensitive (GlyRStrySens) (AID 2283341)
# Outline: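 Radioligand displacement on rat spinal cord membranes, 1 hr, filter scintillation read-out. Single-concentration duplicate screen at 25 uM; chemicals meeting threshold (e.g., 30% inhibition) rerun in concentration-response up to 50 uM. Loss of binding fitted versus DMSO.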
# [11] = TOX21_TRB_BLA_Agonist_Followup_viability: Viability Assessment in the Tox21 Thyroid Hormone Receptor beta Agonism Beta-lactamase (BLA) Follow-Up Assay (AID 2283956)
# Outline: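 Viability was read as CellTiter-Glo luminescence in the same wells as the TRb-bla agonist read-out. HEK293T GAL4-TRb LBD cells were treated for 18 h (37C, 5% CO2) at 11 concentrations in triplicate. Fits were bidirectional versus DMSO baseline.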
# [12] = molecular target: bovine Dopamine Receptor (DR), Non-selective Binding, DRD1 (gene 281125) (UniProt Q95136); test: NVS_GPCR_bDR_NonSelective: NovaScreen (NVS) G Protein-Coupled Receptor Assay for bovine Dopamine Receptor (DR), Non-selective Binding (AID 2283241)
# Outline: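 Filter-based radioligand binding with bovine striatal membrane, incubated 1 h; DMSO as negative baseline. Initial duplicate single-point test at 25 uM preceded concentration series for actives.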
# [13] = molecular target: Tyrosine-protein phosphatase non-receptor type 14 (Homo sapiens) (UniProt Q15678); test: NVS_ENZ_hPTPN14: NovaScreen (NVS) Enzymatic Assay for human Protein Tyrosine Phosphatase Non-receptor Type 14 (PTPN14) (AID 2283206)
# Outline: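 Fluorescent substrate turnover by recombinant human PTPN14 was measured 0.5 h after compound addition, with substrate and product separated by mobility shift. Single-point screening at 25 uM, then concentration-response up to 50 uM for chemicals meeting threshold (e.g., 30% inhibition).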
# [14] = molecular target: human Dopamine Receptor D2 (DRD2), DRD2 (gene 1813) (UniProt P14416); test: NVS_GPCR_hDRD2s: NovaScreen (NVS) G Protein-Coupled Receptor Assay for human Dopamine Receptor D2 (DRD2) (AID 2283266)
# Outline: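 Test compound (25 uM, duplicate in the primary screen; concentration series at follow-up) competed with radioligand for human DRD2 in CHO-derived membrane protein. Filter-based scintillation counting was done 1.5 hours after dosing, with loss of signal analysed against DMSO.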
# [15] = molecular target: Norway rat Vesicular Monoamine Transporter (VMAT2), neurotransmitter transporter, Slc18a2 (gene 25549) (UniProt Q01827); test: NVS_TR_rVMAT2: NovaScreen (NVS) Transporter Assay for Norway rat Vesicular Monoamine Transporter (VMAT2), neurotransmitter transporter (AID 2283376);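 further: actives lower the bound radioligand signal below the DMSO level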
# Outline: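 Filter-based scintillation counting of radioligand bound to rat forebrain-derived VMAT2 protein, cell-free, 1 h post-dose. Signal loss relative to DMSO control scored; single-concentration duplicate screen (25 uM) followed by concentration-response testing of actives.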
compound,measurement,setting,value
CC(C1CC1)C(O)(Cn1cncn1)c1ccc(Cl)cc1 (stereo not given),AC50,[1],active: 0.0911 µM
CCOP(=S)(OCC)SCCSCC,AC50,[2],inconclusive: 62.4 µM
C#CC(C)(C)NC(=O)c1cc(Cl)cc(Cl)c1,outcome,[3],inactive
same,outcome,[4],inactive
COC(=O)N(C(=O)N1CO[C@@]2(C(=O)OC)Cc3cc(Cl)ccc3C2=N1)c1ccc(OC(F)(F)F)cc1,AC50,[5],inconclusive: 4.96 µM
same,outcome,[6],inactive
same,AC50,[7],inconclusive: 25 µM
CN(C)N=O,AC50,[8],inconclusive: 25 µM
O=C(Nc1ccccc1)Nc1ccnc(Cl)c1,AC50,[9],inconclusive: 0.111 µM
same,outcome,[10],inactive
NNC(=S)NN,AC50,[11],inconclusive: 38.1 µM
CCCCOC(=O)c1ccccc1C(=O)O,outcome,[12],inactive
O=C(O)c1cc(Oc2ccc(C(F)(F)F)cc2Cl)ccc1[N+](=O)[O-],outcome,[13],inactive
same,outcome,[14],inactive
ClC1=C(Cl)[C@]2(Cl)[C@@H]3[C@H]4C[C@H]([C@@H]5O[C@H]45)[C@@H]3[C@@]1(Cl)C2(Cl)Cl,AC50,[15],inconclusive: 45.8 µM

# Random excerpt: 2 records from the list, in no set order.
compound,measurement,setting,value
NNC(=S)NN,AC50,[11],inconclusive: 38.1 µM
C#CC(C)(C)NC(=O)c1cc(Cl)cc(Cl)c1,outcome,[3],inactive
